## Primary screen of a compound library

By UniProt entry, the sequences of proteins in these tests, tags left out. Residues count along the entry.
UniProt P9WPC5, whole entry: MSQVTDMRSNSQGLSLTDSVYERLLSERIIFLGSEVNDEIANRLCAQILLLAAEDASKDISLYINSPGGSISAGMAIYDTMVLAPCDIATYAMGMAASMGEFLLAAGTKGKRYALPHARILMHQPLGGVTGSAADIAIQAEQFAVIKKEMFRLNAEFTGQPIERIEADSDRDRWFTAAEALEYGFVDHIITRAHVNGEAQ
UniProt P9WPC3, whole entry partner: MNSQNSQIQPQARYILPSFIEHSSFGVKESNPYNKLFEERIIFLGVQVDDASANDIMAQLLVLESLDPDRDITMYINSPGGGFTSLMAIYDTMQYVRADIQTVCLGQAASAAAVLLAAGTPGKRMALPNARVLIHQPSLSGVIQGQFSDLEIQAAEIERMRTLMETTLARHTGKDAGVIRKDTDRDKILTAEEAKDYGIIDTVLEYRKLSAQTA
UniProt A4I591, 1-473: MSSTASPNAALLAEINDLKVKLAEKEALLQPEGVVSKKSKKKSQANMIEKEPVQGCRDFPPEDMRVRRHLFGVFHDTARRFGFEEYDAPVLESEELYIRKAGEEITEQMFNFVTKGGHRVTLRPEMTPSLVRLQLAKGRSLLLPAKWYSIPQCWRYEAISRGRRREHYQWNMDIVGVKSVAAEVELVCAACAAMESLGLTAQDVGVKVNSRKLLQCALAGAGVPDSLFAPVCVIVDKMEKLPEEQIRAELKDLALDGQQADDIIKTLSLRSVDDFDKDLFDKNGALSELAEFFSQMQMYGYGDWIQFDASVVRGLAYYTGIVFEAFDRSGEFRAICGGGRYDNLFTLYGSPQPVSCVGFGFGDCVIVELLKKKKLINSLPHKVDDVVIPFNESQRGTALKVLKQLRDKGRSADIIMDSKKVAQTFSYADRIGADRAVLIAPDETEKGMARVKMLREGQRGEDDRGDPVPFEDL

A: 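Protease assay of ClpP1P2, read by the AMC dye that it sets free. Target: ClpP1P2, Mycobacterium tuberculosis (UniProt P9WPC5 and UniProt P9WPC3). Tested at 50 µM. Higher reads as stronger inhibition, judged from the few compounds that gave an IC50. Most other retested compounds had strongly negative values. Size under these conditions: about 69,000 compounds, about 10 of them at 50% or above in at least one test.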
B: 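Enzyme assay of histidyl-tRNA synthetase; the read-out is not stated. Target: Histidine-tRNA ligase, Leishmania infantum (UniProt A4I591). Concentration: 30 µM. The record gives no direction; compounds that gave an IC50 in retests scored well above the rest, so higher reads as stronger inhibition. The assay is labelled LdHisRS but filed under L. infantum. About 69,000 compounds were tested under these conditions; 0.6% (about 410) showed 50% or more at least once.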

Results are given as percent effect.
The controls that fix the scale are not given in the record; negative values are as filed.
The compounds are a random part of those screened.

For COCCN1CCN(C(C)c2nc(C3CC3)no2)CC1 (stereo not given) the result was A: -12.54%; B: 11.01%.
For CC(CC(=O)c1ccco1)NC(=O)c1ccon1 (stereo not given) the result was A: -0.9406%; B: 19.47%.
For O=C(NCCCN1CCN(c2ncccn2)CC1)NCC1CCCO1 (stereo not given) the result was A: 7.976%; B: 17.95%.
For CCn1nc(C)c(CN2CCC(c3ccc(C(=O)O)cc3)C2)c1C (stereo not given) the result was A: -11.34%; B: 10.75%.
For O=C(NCCOc1cccc(Cl)c1)C1CC(=O)N(CC2CC2)C1 (stereo not given) the result was A: 5.634%; B: 31.82%.
For O=C(NCC1CC1)C1CN(C(=O)c2cccnc2)CC12CCOCC2 (stereo not given) the result was A: -11.07%; B: 0.9709%.
For NC(=O)NCC1CCCCN1C(=O)c1cc(F)cc(F)c1 (stereo not given) the result was A: -25.01%; B: 13.39%.
For COc1cccc(CNC(=O)c2cc(C)nc(N3CCCC3)n2)c1 the result was A: -1.63%; B: 7.143%.
For Cn1cc(CN2C[C@H](Oc3ncccc3F)[C@H]3OCCC[C@H]32)cn1 the result was A: 5.668%; B: 35.9%.
For COc1cccc2c1OCC(CNC(=O)Cc1cnccn1)C2 (stereo not given) the result was A: -8.704%; B: 19.74%.
For CC(=O)N1CCCC1c1csc(Nc2cnccn2)n1 (stereo not given) the result was A: 5.465%; B: 17.14%.
For O=c1c2cnc(N3CCCCC3)nc2ccn1-c1ccccc1 the result was A: -4.204%; B: 7.767%.
For CN(Cc1nc(C(C)(C)C)no1)C1CCS(=O)(=O)C1 (stereo not given) the result was A: -2.637%; B: -1.961%.
For Cc1ccccc1CS(=O)(=O)Cc1nc(C2CC2)no1 the result was A: 10.18%; B: 11.11%.
For CCc1ccc(C(=O)N2CCC(c3nncn3CC)CC2)s1 the result was A: -5.695%; B: 1.818%.
For CCN(Cc1ccoc1)C(C(N)=O)c1ccc(Br)cc1 (stereo not given) the result was A: -2.674%; B: -154.8%.
For Cc1nc(C2CCCN(C(=O)c3scnc3C)C2)no1 (stereo not given) the result was A: -8.633%; B: 6.731%.
For O=S(=O)(c1ccc2c(c1)OCCO2)N1CCC(OCc2ccccn2)C1 (stereo not given) the result was A: -7.366%; B: -0.8333%.
For COc1ccc(-c2nc3c([nH]2)CCNC3C(=O)O)c2ccc(C)nc12 (stereo not given) the result was A: 9.769%; B: 1.042%.
For Cc1ccc2oc(CN3CCn4nc(CCC(=O)O)cc4C3)c(C)c2c1 the result was A: 5.537%; B: 13.6%.
For Cc1cnn(CC2CCCN2C(=O)c2csc(C(C)C)n2)c1 (stereo not given) the result was A: -3.786%; B: 0.885%.
For CCN(CCn1cccn1)Cc1nc(-c2ccc(C)o2)oc1C the result was A: -1.212%; B: 15.15%.
For Cc1cnn(CCC(=O)N2CCN(C(=O)C(C)C)[C@@H]3CS(=O)(=O)C[C@@H]32)c1 the result was A: -2.55%; B: 18.03%.
For N#CCCCOc1cccnc1NC(=O)Cc1ccccc1F the result was A: -27.87%; B: 16.05%.
For O=C([C@@H]1C[C@@H]2CCN(C3CCOCC3)C[C@@H]2O1)N1CCCC1 the result was A: -12.54%; B: 25%.
For CCC[C@H]1CN(Cc2ccc(N(C)C)nc2)C[C@@H]1NS(=O)(=O)CC the result was A: -20.35%; B: 17.09%.
For Cn1c2c(c(=O)n1C)CN(C(=O)c1ccncc1F)CCC2 the result was A: 1.958%; B: 1.98%.
For NC(=O)CC1CCN(C(=O)NCc2cccc(-n3cccn3)c2)CC1 the result was A: -14.23%; B: 18.58%.
For Cn1cccc1C(=O)N1C[C@H]2CN(CCN3CCCC3)C(=O)[C@H]2C1 the result was A: -4.273%; B: 8%.
For COc1ccccc1OCc1cc(C(=O)N2CC(O)C2)n[nH]1 the result was A: -4.23%; B: 20.19%.
For Cc1cccc(CN2C(=O)CC[C@H]3[C@@H]2CCN3CC(=O)N(C)C)n1 the result was A: 2.636%; B: 17.65%.
For COc1ccc(CN2C[C@@H]3OCCN(CCN(C)C)[C@@H]3C2)cc1 the result was A: 3.644%; B: 15.6%.
For Cc1ccc(CN2CCn3c(COc4cccnc4)cnc3C2C)o1 (stereo not given) the result was A: -7.74%; B: 23.76%.
For Cc1ccc(C(=O)NCCNC(=O)c2cncnc2C)cc1F the result was A: 6.218%; B: 9.375%.
For Cc1nc(C)n(CC2CN(Cc3nccs3)Cc3nccn3C2)n1 (stereo not given) the result was A: -3.701%; B: 17.11%.
For CC(C)C(C)NC(=O)Nc1ccccc1CN1CCOCC1 (stereo not given) the result was A: -6.105%; B: 20.75%.
For CC1CN(CC(=O)NC(C2CC2)C2CC2)CCN1Cc1nccn1C (stereo not given) the result was A: -37.28%; B: 11.01%.
For Cc1ccccc1C(O)CNC(=O)Cc1ccc(F)cc1 (stereo not given) the result was A: -0.06286%; B: 2.857%.
For CCOCC(=O)N1CCC(c2nccn2CC2CC2)CC1 the result was A: -2.356%; B: 23.2%.
For CC(=O)N1CC[C@H](c2nc3cc(C)ccc3o2)C1 the result was A: -19.79%; B: -2.703%.
For CCC(NC(=O)c1nn(C)cc1C(=O)O)c1ccc(C)cc1C (stereo not given) the result was A: 8.962%; B: 10.31%.
For O=C(Nc1cccs1)N1CC(c2nc(C3CC3)no2)C1 the result was A: 5.155%; B: 13.91%.
For Cc1cc(CN2CCOC(Cn3nc(C)cc3C)C2)on1 (stereo not given) the result was A: -14.23%; B: 18.35%.
For Cc1cc(CC(=O)N(CC2CN(C)CCO2)c2nccs2)no1 (stereo not given) the result was A: 7.092%; B: 3.077%.
For O=C(c1ccc(-c2cc[nH]n2)cc1)N1CC[C@H](CO)[C@H](O)C1 the result was A: 5.441%; B: 19.35%.

For reference, 6 entries once more:

Compound	A	B
O=c1c2cnc(N3CCCCC3)nc2ccn1-c1ccccc1	-4.204	7.767
CC(=O)N1CCCC1c1csc(Nc2cnccn2)n1 (stereo not given)	5.465	17.14
Cc1ccccc1C(O)CNC(=O)Cc1ccc(F)cc1 (stereo not given)	-0.06286	2.857
CCn1nc(C)c(CN2CCC(c3ccc(C(=O)O)cc3)C2)c1C (stereo not given)	-11.34	10.75
Cc1cc(CN2CCOC(Cn3nc(C)cc3C)C2)on1 (stereo not given)	-14.23	18.35
Cn1cccc1C(=O)N1C[C@H]2CN(CCN3CCCC3)C(=O)[C@H]2C1	-4.273	8

From ChEMBL document CHEMBL3988442, “University of Dundee, Small-Polar-MMV Screening Library” (2021).